Data as given in paper PMC12205651, “A 36-base hairpin within lncRNA DRAIC, which is modulated by alternative splicing, interacts with the IKKα coiled-coil domain and inhibits NF-κB and tumor cell phenotypes”.
Construct, isoform or probe ends are uncertain for at least one entry. A negative result means that nothing was seen under these conditions. At least one verdict rests on a figure or table, not on a statement of the authors. Tags and fusion partners may be left off the protein sequences shown.

How the values were obtained:
IKKα-His [1] = biological target: T1, IKKα-His (UniProt O15111); experiment: EMSA; conditions: EMSA: LightShift kit, 22 °C, 25 min; commercial protein; protein details: His
T1 sequence (looked up, limits assumed): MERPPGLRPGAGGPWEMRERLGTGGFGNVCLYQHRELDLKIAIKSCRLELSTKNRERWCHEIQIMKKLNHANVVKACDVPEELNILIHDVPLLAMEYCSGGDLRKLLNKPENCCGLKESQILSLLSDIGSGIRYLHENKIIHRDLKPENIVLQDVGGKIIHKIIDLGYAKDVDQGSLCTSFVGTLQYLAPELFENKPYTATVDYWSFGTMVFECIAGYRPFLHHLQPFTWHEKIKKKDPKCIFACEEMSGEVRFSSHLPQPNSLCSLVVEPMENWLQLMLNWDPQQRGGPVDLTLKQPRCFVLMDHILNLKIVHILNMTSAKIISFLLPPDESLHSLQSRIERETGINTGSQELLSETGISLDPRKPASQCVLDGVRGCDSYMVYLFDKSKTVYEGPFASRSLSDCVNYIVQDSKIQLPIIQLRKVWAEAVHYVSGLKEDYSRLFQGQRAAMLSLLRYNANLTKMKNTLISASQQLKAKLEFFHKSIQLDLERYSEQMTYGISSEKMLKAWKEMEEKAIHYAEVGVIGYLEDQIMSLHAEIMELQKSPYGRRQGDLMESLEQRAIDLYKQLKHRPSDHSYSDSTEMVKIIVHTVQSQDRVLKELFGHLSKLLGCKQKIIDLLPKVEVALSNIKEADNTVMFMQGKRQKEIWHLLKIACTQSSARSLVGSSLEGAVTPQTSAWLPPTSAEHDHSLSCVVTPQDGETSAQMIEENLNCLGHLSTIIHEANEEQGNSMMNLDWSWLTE

IKKα-His [2] = biological target: T1, IKKα-His; experiment: pull-down (in vitro RIP-qPCR); conditions: negative control; pull-down: 25 mM HEPES pH 7.5, 150 mM NaCl, 0.05% NP-40, 10% glycerol, RT; commercial protein; protein details: His

Row | Sequence | binding result (IKKα-His [1]) | binding result (IKKα-His [2])
1 | CCUUGGUGGCCCAUAGUGCCAAUGGCCCGCCAAAGG [M3 RNA] | no binding | 
2 | GAGACCCAAGCUUGGUACCGAGCUCGGAUCCUCGAGCAUGCAUCUAGAGG [EV RNA] |  | no binding
